# System: Candida albicans
# Experiment: Antifungal activity against Candida albicans ATCC 3153 after 48 hrs
# Assay type: functional
# Conditions: ATCC 3153, 48 h
compound,measurement,value
OC(Cn1cncn1)(Cn1cncn1)c1ccc(F)cc1F [FLUCONAZOLE],MIC,1.56 µg/mL

# — ChEMBL document CHEMBL1255264, “Mechanism-based pharmacokinetic-pharmacodynamic models of in vitro fungistatic and fungicidal effects against Candida albicans” (Antimicrob Agents Chemother, 2008)
